PubChem BioAssay AID686943, Drosophila RNAi Screening Center | 2013
Assay: 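Knockdowns that increase or decrease active ERK after insulin receptor stimulation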 (primary screen). Cell system: Drosophila S2R+ haemocyte-like cells expressing YFP-tagged ERK (Rolled). Knock-down reagent: long dsRNA against Drosophila genes. Challenge: insulin stimulation versus unstimulated cells; dose and duration not given. Detection: 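Per-plate z-scores of phospho-ERK immunostaining normalised to YFP-tagged ERK, measured with and without insulin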. Scale: replicate 1, z-score of dpERK with insulin and replicate 2, z-score of dpERK with insulin: higher = more active ERK per ERK-YFP after insulin.
In all, the deposit lists about 23,000 reagents; this is a random part of those that have a named target and a result. 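Extra replicates exist only for a retested subset of genes; insulin dose and duration not given; both raised and lowered dpERK matter.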 Further read-outs or replicates are left out here. Not given: the amount of reagent, the time to read-out.

{"gene": "CG14787 (GeneID 31096)", "dsRNA": "DRSC18606", "replicate 1, z-score of dpERK with insulin": 0.3, "replicate 2, z-score of dpERK with insulin": 0.73}
{"gene": "Prosap (GeneID 50225)", "dsRNA": "DRSC06382", "replicate 1, z-score of dpERK with insulin": -0.99, "replicate 2, z-score of dpERK with insulin": 0.05}
{"gene": "Prosap (GeneID 50225)", "dsRNA": "DRSC07081", "replicate 1, z-score of dpERK with insulin": -0.24, "replicate 2, z-score of dpERK with insulin": -0.12}
{"gene": "CG31245 (GeneID 42316)", "dsRNA": "DRSC15498", "replicate 1, z-score of dpERK with insulin": 1.01, "replicate 2, z-score of dpERK with insulin": -0.13}
{"gene": "CG14857 (GeneID 41791)", "dsRNA": "DRSC14981", "replicate 1, z-score of dpERK with insulin": -0.02, "replicate 2, z-score of dpERK with insulin": -0.56}
{"gene": "Sugb (GeneID 39314)", "dsRNA": "DRSC10815", "replicate 1, z-score of dpERK with insulin": -0.15, "replicate 2, z-score of dpERK with insulin": 0.02}
{"gene": "lft (GeneID 34405)", "dsRNA": "DRSC02236", "replicate 1, z-score of dpERK with insulin": -0.05, "replicate 2, z-score of dpERK with insulin": 0.96}
{"gene": "Art1 (GeneID 41295)", "dsRNA": "DRSC16063", "replicate 1, z-score of dpERK with insulin": 0.19, "replicate 2, z-score of dpERK with insulin": -0.07}

3 entries from above, reduced to “replicate 2, z-score of dpERK with insulin”:
CG14857 (GeneID 41791) [DRSC14981] = -0.56
Sugb (GeneID 39314) [DRSC10815] = 0.02
lft (GeneID 34405) [DRSC02236] = 0.96

The list goes on:
{"gene": "Sox100B (GeneID 45039)", "dsRNA": "DRSC15090", "replicate 1, z-score of dpERK with insulin": -0.14, "replicate 2, z-score of dpERK with insulin": -1.37}
{"gene": "Sox100B (GeneID 45039)", "dsRNA": "DRSC16866", "replicate 1, z-score of dpERK with insulin": -0.48, "replicate 2, z-score of dpERK with insulin": 0.04}
{"gene": "CG5348 (GeneID 36877)", "dsRNA": "DRSC06933", "replicate 1, z-score of dpERK with insulin": 0.44, "replicate 2, z-score of dpERK with insulin": -0.32}
{"gene": "CG3739 (GeneID 42320)", "dsRNA": "DRSC15510", "replicate 1, z-score of dpERK with insulin": -0.06, "replicate 2, z-score of dpERK with insulin": -0.07}
{"gene": "CG3961 (GeneID 40056)", "dsRNA": "DRSC10390", "replicate 1, z-score of dpERK with insulin": -0.31, "replicate 2, z-score of dpERK with insulin": -0.81}
{"gene": "CG3961 (GeneID 40056)", "dsRNA": "DRSC10391", "replicate 1, z-score of dpERK with insulin": -0.52, "replicate 2, z-score of dpERK with insulin": 0.24}
{"gene": "Cyt-c-p (GeneID 34996)", "dsRNA": "DRSC03310", "replicate 1, z-score of dpERK with insulin": 1.43, "replicate 2, z-score of dpERK with insulin": 0.66}
{"gene": "Mnr (GeneID 33098)", "dsRNA": "DRSC20549", "replicate 1, z-score of dpERK with insulin": 0.24, "replicate 2, z-score of dpERK with insulin": 0.24}
{"gene": "Mnr (GeneID 33098)", "dsRNA": "DRSC20550", "replicate 1, z-score of dpERK with insulin": 1.54, "replicate 2, z-score of dpERK with insulin": 0.55}
{"gene": "Mnr (GeneID 33098)", "dsRNA": "DRSC22441", "replicate 1, z-score of dpERK with insulin": 0.58, "replicate 2, z-score of dpERK with insulin": -0.1}
{"gene": "CG7006 (GeneID 42963)", "dsRNA": "DRSC16169", "replicate 1, z-score of dpERK with insulin": -0.7, "replicate 2, z-score of dpERK with insulin": -1.04}
{"gene": "udt (GeneID 42809)", "dsRNA": "DRSC14214", "replicate 1, z-score of dpERK with insulin": 0.43, "replicate 2, z-score of dpERK with insulin": 1.63}
{"gene": "CG31913 (GeneID 319023)", "dsRNA": "DRSC00892", "replicate 1, z-score of dpERK with insulin": -0.66, "replicate 2, z-score of dpERK with insulin": 1.04}
